For at least one entry, the source does not settle the construct or the ends of the probe. For some assays here: The comparison behind a weaker result is the experiment's own reference, which may not be listed here. For some assays here: At least one verdict rests on a figure or table, not on a statement of the authors.
Legend:
[1] = target: Rad52 (Saccharomyces cerevisiae) (UniProt P06778); assay: tryptophan quenching; settings: more than (dT)45 needed for maximal quenching; AUC: 30 mM HEPES pH 7.8, 100 mM KCl, 10% glycerol, 1 mM TCEP; recombinant protein; residues 1-471; protein details: purified via chitin-binding (CBD) tag, DTT elution; single-stranded DNA
[2] = tested on: Rad52ΔC + Rad52ΔN; assay: tryptophan quenching; settings: premixed, initial binding then sharp loss; AUC: 30 mM HEPES pH 7.8, 100 mM KCl, 10% glycerol, 1 mM TCEP; recombinant protein; single-stranded DNA
[3] = tested on: Rad52 + Rad52ΔN; assay: tryptophan quenching; settings: Rad52 premixed with Rad52ΔN, second phase reduced; AUC: 30 mM HEPES pH 7.8, 100 mM KCl, 10% glycerol, 1 mM TCEP; recombinant protein; single-stranded DNA
[4] = target: Rad52 (Saccharomyces cerevisiae) (UniProt P06778); assay: FRET; settings: Anisotropy/FRET: 50 mM Tris-acetate pH 7.5, 50 mM KCl, 5 mM MgCl2, 10% glycerol, 1 mM DTT, 0.2 mg/mL BSA, 23 C; recombinant protein; residues 1-471; protein details: purified via chitin-binding (CBD) tag, DTT elution; label: 5'-Cy5, 3'-Cy3; single-stranded DNA

Sequences of proteins named here, by UniProt entry; tags and fusion partners are left off. A change or cut given only in a name is not applied to a line headed by its entry.
UniProt P06778: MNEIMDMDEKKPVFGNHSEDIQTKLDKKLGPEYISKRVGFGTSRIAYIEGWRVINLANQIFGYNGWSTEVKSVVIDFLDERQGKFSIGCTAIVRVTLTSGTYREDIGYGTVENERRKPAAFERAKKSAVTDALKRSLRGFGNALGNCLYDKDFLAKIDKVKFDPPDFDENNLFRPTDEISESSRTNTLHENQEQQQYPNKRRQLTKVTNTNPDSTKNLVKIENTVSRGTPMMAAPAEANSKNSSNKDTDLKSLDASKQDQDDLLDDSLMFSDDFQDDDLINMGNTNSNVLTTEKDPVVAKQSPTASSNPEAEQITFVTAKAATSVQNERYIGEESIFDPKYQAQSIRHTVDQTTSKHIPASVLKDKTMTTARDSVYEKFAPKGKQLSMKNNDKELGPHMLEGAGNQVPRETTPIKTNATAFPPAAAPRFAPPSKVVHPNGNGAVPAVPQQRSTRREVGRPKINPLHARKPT

Sequence: TTTTTTTTTTTTTTTTTTTTTTTTTTTTTT [(dT)30]
- binding result [1]: binds more weakly

Sequence: TTTTTTTTTTTTTTTTTTTTTTTTTTTTTTTTTTTTTTTTTTTTTTTTTTTTTTTTTTTTTTTTTTTTTTTTTTTTTTTTTTTT [(dT)84]
- binding result [2]: binds more weakly
- binding result [3]: binds more weakly

Sequence: TTTTTTTTTTTTTTTTTTTT [(dT)20]
- binding result [1]: binds more weakly

Sequence: TTTTTTTTTTTTTTTTTTTTTTTTTTTTTTTTTTTTTTTTTTTTTTTTTTTTTTTTTTTT [Cy5-(dT)60-Cy3]
- binding result [4]: binds
